# This is one part of the list. The list holds hits alone, and they repeat only in part.
# Sequences of proteins named here, by UniProt entry; tags and fusion partners are left off.
# ADARB2, Q9NS39, UniProt Q9NS39, whole entry: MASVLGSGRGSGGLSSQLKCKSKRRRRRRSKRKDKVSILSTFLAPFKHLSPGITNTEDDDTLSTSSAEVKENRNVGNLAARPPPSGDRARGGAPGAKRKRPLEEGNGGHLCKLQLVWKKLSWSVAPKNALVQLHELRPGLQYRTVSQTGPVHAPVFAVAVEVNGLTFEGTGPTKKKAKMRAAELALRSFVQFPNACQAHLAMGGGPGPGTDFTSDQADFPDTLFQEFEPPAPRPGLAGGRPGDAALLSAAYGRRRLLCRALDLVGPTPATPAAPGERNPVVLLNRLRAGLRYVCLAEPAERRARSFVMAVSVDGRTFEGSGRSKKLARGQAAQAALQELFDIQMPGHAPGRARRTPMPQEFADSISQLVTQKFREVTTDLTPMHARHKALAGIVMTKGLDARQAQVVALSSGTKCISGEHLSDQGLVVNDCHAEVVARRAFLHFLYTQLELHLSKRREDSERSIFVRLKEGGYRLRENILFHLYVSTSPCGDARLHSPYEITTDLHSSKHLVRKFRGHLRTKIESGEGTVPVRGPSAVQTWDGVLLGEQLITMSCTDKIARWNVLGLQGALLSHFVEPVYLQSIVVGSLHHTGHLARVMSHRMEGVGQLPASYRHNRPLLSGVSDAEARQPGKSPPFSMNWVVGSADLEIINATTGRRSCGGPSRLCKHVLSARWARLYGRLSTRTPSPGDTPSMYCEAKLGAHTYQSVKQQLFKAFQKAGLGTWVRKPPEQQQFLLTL
# CST2, P09228, UniProt P09228, whole entry: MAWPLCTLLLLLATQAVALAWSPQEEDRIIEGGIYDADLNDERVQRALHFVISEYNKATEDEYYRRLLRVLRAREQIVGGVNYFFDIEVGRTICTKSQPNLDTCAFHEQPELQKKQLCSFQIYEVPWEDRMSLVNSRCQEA
# EXOSC1, Q9Y3B2, UniProt Q9Y3B2, whole entry: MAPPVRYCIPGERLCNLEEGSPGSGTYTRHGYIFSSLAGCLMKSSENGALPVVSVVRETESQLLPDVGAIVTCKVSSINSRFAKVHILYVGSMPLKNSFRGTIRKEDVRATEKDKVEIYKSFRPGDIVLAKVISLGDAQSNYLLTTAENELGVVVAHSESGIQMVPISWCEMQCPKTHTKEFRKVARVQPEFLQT
# CUL4A, Q13619, UniProt Q13619, whole entry: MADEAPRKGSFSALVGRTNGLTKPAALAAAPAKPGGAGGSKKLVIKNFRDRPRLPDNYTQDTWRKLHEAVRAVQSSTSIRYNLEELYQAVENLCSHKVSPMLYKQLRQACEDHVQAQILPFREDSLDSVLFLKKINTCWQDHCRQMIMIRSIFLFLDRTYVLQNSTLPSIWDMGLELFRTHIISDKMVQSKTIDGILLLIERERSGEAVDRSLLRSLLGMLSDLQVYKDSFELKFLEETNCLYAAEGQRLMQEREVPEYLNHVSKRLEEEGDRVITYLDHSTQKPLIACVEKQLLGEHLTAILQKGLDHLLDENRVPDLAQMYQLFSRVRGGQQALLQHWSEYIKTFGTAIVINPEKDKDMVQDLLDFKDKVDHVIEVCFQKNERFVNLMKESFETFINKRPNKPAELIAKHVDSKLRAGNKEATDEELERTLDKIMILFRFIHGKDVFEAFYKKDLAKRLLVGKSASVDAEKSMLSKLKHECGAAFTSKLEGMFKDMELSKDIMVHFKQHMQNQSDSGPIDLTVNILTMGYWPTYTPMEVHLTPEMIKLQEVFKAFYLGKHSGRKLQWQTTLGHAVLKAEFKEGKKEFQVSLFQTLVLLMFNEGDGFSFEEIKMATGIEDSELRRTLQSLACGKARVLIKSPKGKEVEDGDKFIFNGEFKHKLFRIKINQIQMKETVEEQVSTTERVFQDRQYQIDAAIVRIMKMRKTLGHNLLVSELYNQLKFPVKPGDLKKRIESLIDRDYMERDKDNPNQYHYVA
# NELFE, P18615, UniProt P18615, whole entry: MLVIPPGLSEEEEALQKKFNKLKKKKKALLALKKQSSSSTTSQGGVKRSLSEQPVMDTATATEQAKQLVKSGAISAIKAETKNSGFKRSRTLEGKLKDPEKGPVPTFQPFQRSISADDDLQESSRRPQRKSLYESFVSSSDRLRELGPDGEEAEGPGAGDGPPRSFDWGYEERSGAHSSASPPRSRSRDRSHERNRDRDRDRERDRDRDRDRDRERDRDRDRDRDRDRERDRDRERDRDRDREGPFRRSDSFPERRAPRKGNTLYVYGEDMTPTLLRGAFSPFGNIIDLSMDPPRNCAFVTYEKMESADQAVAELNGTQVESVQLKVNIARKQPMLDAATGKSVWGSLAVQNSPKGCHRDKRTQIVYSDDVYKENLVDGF
# CLPX, O76031, UniProt O76031, whole entry: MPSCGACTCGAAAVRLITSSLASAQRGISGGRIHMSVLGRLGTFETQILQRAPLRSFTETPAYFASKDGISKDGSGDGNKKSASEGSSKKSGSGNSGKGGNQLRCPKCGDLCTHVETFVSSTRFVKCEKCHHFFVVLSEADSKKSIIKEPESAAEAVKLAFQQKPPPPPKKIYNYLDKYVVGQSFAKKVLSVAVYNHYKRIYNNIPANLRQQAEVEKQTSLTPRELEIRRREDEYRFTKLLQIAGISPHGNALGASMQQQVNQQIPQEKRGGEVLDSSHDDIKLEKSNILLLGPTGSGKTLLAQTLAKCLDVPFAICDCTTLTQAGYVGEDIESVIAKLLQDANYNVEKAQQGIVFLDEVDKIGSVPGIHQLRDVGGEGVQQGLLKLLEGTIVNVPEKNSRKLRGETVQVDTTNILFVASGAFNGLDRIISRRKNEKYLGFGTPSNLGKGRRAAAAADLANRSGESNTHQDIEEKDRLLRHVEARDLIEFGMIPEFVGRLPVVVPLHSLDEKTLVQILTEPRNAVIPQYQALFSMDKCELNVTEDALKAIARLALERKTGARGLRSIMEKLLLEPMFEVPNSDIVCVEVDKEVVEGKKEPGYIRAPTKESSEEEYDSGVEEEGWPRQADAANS
# DCTN1, Q14203, UniProt Q14203, whole entry: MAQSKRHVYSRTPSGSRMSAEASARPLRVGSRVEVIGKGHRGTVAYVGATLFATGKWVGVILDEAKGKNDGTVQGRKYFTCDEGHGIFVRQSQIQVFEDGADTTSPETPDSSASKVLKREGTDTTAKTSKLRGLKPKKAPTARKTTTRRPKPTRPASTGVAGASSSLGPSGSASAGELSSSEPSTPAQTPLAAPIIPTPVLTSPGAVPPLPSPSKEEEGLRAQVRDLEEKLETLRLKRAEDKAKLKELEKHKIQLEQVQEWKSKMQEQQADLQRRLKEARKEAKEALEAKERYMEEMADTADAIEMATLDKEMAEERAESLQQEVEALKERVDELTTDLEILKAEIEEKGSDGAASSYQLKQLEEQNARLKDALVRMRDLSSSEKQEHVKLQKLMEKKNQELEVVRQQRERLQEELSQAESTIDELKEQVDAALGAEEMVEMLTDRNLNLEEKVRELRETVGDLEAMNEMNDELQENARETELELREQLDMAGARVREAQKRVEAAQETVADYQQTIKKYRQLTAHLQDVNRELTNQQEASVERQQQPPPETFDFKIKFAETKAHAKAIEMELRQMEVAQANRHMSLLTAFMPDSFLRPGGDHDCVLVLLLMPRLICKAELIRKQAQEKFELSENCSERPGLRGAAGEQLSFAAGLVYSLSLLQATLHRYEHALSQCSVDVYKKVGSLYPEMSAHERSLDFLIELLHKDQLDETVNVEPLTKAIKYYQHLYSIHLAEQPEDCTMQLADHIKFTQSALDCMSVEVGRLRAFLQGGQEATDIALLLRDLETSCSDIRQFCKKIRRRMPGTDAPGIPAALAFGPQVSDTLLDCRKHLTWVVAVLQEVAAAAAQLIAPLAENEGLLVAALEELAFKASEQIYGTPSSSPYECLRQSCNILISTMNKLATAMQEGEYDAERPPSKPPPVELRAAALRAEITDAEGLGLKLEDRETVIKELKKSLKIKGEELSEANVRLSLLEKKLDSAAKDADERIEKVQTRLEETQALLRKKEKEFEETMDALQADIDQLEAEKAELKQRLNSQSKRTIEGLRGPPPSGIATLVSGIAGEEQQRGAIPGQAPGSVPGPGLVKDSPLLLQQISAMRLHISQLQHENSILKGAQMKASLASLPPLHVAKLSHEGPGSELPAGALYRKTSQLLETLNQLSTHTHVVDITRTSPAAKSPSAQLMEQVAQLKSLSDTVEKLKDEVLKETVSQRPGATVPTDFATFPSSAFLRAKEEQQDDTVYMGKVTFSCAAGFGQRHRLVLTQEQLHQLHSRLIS
# MTHFD1L, Q6UB35, UniProt Q6UB35, whole entry: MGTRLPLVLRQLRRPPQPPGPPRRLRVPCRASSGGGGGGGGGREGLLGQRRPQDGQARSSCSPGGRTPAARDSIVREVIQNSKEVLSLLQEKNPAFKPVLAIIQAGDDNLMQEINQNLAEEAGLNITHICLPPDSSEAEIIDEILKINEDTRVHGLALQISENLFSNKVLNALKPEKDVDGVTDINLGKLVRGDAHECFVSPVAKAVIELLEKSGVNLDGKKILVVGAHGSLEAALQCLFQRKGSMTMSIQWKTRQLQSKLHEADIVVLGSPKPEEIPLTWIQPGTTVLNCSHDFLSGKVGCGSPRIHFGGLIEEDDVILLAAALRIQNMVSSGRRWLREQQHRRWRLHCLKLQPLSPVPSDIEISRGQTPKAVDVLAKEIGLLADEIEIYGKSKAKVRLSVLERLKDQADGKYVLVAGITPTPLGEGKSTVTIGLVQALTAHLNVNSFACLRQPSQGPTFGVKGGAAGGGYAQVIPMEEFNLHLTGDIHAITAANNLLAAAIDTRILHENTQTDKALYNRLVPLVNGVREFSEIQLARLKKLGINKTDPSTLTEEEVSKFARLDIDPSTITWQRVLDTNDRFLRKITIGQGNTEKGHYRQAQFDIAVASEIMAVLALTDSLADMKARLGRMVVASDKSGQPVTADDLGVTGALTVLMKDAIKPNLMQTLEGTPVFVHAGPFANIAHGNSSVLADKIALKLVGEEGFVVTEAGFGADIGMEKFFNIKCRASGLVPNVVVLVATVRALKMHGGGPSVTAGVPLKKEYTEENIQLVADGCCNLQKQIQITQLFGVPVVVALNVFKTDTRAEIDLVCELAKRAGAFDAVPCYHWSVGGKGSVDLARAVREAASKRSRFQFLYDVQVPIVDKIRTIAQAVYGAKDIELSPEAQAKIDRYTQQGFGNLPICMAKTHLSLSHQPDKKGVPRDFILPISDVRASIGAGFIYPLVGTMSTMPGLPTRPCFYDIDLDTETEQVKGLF
# NUP153, P49790, UniProt P49790, whole entry: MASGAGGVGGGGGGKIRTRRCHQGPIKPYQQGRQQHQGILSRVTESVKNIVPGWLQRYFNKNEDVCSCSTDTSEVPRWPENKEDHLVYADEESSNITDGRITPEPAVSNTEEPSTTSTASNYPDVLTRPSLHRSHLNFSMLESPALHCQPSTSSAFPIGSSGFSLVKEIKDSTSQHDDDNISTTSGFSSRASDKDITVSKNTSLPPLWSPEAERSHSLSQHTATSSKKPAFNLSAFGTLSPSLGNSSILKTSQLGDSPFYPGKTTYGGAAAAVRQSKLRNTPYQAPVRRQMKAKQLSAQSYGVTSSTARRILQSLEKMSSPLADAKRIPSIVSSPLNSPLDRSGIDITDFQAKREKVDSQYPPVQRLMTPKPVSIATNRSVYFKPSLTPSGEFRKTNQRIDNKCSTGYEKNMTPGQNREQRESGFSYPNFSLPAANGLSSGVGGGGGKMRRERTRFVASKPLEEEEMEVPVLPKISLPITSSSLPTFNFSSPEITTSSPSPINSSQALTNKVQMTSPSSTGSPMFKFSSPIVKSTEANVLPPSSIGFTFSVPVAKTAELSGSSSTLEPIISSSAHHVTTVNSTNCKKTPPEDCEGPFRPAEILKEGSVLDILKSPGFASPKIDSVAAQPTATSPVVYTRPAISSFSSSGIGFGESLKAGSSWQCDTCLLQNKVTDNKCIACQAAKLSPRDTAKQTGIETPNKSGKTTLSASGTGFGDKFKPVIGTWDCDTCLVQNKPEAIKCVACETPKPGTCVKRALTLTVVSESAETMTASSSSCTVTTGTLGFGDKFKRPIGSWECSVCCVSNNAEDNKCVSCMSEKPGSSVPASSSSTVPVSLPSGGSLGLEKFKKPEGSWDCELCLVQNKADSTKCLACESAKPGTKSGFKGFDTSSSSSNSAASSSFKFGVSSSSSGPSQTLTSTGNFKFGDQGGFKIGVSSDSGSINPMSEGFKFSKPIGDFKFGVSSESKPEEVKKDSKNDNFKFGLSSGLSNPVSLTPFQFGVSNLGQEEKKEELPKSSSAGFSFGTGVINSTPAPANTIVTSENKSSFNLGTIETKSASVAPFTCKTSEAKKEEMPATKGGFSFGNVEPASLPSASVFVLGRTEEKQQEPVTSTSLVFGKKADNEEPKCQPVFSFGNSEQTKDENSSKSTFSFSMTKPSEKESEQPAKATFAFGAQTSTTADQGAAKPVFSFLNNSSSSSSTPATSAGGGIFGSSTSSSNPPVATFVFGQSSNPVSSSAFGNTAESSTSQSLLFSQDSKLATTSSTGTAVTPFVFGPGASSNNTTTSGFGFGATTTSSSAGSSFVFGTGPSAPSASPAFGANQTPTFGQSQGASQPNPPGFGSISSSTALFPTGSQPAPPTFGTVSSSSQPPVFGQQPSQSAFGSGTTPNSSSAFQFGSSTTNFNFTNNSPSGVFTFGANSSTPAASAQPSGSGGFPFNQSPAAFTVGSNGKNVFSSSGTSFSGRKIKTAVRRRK
# Key:
# Experiment in all cases: PRISMA enrichment of interactor (LFQ) in peptide spot vs all other peptide spots (log2 fold change); higher = stronger / more specific binding of the interactor to the peptide
# [1] = target: ADARB2, Q9NS39
# Protocol: (§1)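 PRISMA: 221 full-length sORF-encoded peptides (3-15 aa), plus SOS1/GLUT1 control peptides, were spot-synthesized on cellulose membranes in triplicate. Membranes were incubated with HEK293T lysate, and bound proteins were identified by LC-MS/MS with LFQ. Enrichment is the log2 fold change versus all other peptide spots; only significant interactors are listed (cutoff c=6, x0=2.8).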
# [2] = target: AOC3, Q16853
# Protocol: as §1
# [3] = target: CST2, P09228
# Protocol: as §1
# [4] = target: EXOSC1, Q9Y3B2
# Protocol: as §1
# [5] = target: FARSB, Q9NSD9
# Protocol: as §1
# [6] = target: HHAT, Q5VTY9
# Protocol: as §1
# [7] = target: HIBADH, P31937
# Protocol: as §1
# [8] = target: RBM6, P78332
# Protocol: as §1
# [9] = target: TUBB8, Q3ZCM7
# Protocol: as §1
# [10] = target: ADGRA3, Q8IWK6
# Protocol: as §1
# [11] = target: CC2D1A, Q6P1N0
# Protocol: as §1
# [12] = target: CUL4A, Q13619
# Protocol: as §1
# [13] = target: GTF3C3, Q9Y5Q9
# Protocol: as §1
# [14] = target: MCM10, Q7L590
# Protocol: as §1
# [15] = target: MICU2, Q8IYU8
# Protocol: as §1
# [16] = target: MRPL45, Q9BRJ2
# Protocol: as §1
# [17] = target: NELFE, P18615
# Protocol: as §1
# [18] = target: NQO2, P16083
# Protocol: as §1
# [19] = target: PAF1, Q8N7H5
# Protocol: as §1
# [20] = target: PAIP1, Q9H074
# Protocol: as §1
# [21] = target: RRS1, Q15050
# Protocol: as §1
# [22] = target: SCO1, O75880
# Protocol: as §1
# [23] = target: SEPTIN9, Q9UHD8
# Protocol: as §1
# [24] = target: SULT1C2, O00338
# Protocol: as §1
# [25] = target: WIZ, O95785
# Protocol: as §1
# [26] = target: ADAR, P55265
# Protocol: as §1
# [27] = target: ATXN2L, Q8WWM7
# Protocol: as §1
# [28] = target: CCAR1, Q8IX12
# Protocol: as §1
# [29] = target: CLPX, O76031
# Protocol: as §1
# [30] = target: DCTN1, Q14203
# Protocol: as §1
# [31] = target: DMD, P11532
# Protocol: as §1
# [32] = target: DNAJB11, Q9UBS4
# Protocol: as §1
# [33] = target: DUSP3, P51452
# Protocol: as §1
# [34] = target: HCFC1, P51610
# Protocol: as §1
# [35] = target: ISCU, Q9H1K1
# Protocol: as §1
# [36] = target: KIF22, Q14807
# Protocol: as §1
# [37] = target: LARP4, Q71RC2
# Protocol: as §1
# [38] = target: MCU, Q8NE86
# Protocol: as §1
# [39] = target: MTHFD1L, Q6UB35
# Protocol: as §1
# [40] = target: NAMPT, P43490
# Protocol: as §1
# [41] = target: NUP153, P49790
# Protocol: as §1
# [42] = target: NXF1, Q9UBU9
# Protocol: as §1
# [43] = target: PICALM, Q13492
# Protocol: as §1
# [44] = target: PINX1, Q96BK5
# Protocol: as §1
# [45] = target: POLDIP3, Q9BY77
# Protocol: as §1
# [46] = target: PRRC2B, Q5JSZ5
# Protocol: as §1
# [47] = target: PRRC2C, Q9Y520
# Protocol: as §1
# [48] = target: PUM1, Q14671
# Protocol: as §1
# [49] = target: QRICH1, Q2TAL8
# Protocol: as §1
# [50] = target: RACGAP1, Q9H0H5
# Protocol: as §1
# [51] = target: RBM14, Q96PK6
# Protocol: as §1
# [52] = target: SCPEP1, Q9HB40
# Protocol: as §1
# [53] = target: SDF2L1, Q9HCN8
# Protocol: as §1
# [54] = target: TBL1XR1, Q9BZK7
# Protocol: as §1
# [55] = target: TMEM201, Q5SNT2
# Protocol: as §1
# [56] = target: TPX2, Q9ULW0
# Protocol: as §1
# [57] = target: UBAP2L, Q14157
# Protocol: as §1
# [58] = target: UMPS, P11172
# Protocol: as §1
# [59] = target: UTP14A, Q9BVJ6
# Protocol: as §1
# [60] = target: XRN1, Q8IZH2
# Protocol: as §1
# [61] = target: ZNF281, Q9Y2X9
# Protocol: as §1
# [62] = target: ZNF638, Q14966
# Protocol: as §1
binder,measurement,setting,value
MKMSVSLSGGRRLL [HIPK3],PRISMA enrichment of interactor (log2),[1],9.05
same,PRISMA enrichment of interactor (log2),[2],7.06
same,PRISMA enrichment of interactor (log2),[3],8.07
same,PRISMA enrichment of interactor (log2),[4],8.15
same,PRISMA enrichment of interactor (log2),[5],5.49
same,PRISMA enrichment of interactor (log2),[6],6.79
same,PRISMA enrichment of interactor (log2),[7],4.69
same,PRISMA enrichment of interactor (log2),[8],4.18
same,PRISMA enrichment of interactor (log2),[9],5.7
MSSTSRDIPSQERSA [CDH11],PRISMA enrichment of interactor (log2),[10],6.2
same,PRISMA enrichment of interactor (log2),[11],6.02
same,PRISMA enrichment of interactor (log2),[12],6.26
same,PRISMA enrichment of interactor (log2),[13],6.04
same,PRISMA enrichment of interactor (log2),[14],4.16
same,PRISMA enrichment of interactor (log2),[15],4.9
same,PRISMA enrichment of interactor (log2),[16],5.26
same,PRISMA enrichment of interactor (log2),[17],4.34
same,PRISMA enrichment of interactor (log2),[18],4.97
same,PRISMA enrichment of interactor (log2),[19],6.13
same,PRISMA enrichment of interactor (log2),[20],3.84
same,PRISMA enrichment of interactor (log2),[21],5.79
same,PRISMA enrichment of interactor (log2),[22],4.58
same,PRISMA enrichment of interactor (log2),[23],5.57
same,PRISMA enrichment of interactor (log2),[24],5.82
same,PRISMA enrichment of interactor (log2),[25],5.72
MLDLIRIYF [GATA4],PRISMA enrichment of interactor (log2),[26],4.94
same,PRISMA enrichment of interactor (log2),[27],5.45
same,PRISMA enrichment of interactor (log2),[28],7.4
same,PRISMA enrichment of interactor (log2),[29],5.58
same,PRISMA enrichment of interactor (log2),[30],6.12
same,PRISMA enrichment of interactor (log2),[31],7.71
same,PRISMA enrichment of interactor (log2),[32],6.32
same,PRISMA enrichment of interactor (log2),[33],5.37
same,PRISMA enrichment of interactor (log2),[34],6.14
same,PRISMA enrichment of interactor (log2),[35],5.41
same,PRISMA enrichment of interactor (log2),[36],4.19
same,PRISMA enrichment of interactor (log2),[37],4.53
same,PRISMA enrichment of interactor (log2),[38],7.17
same,PRISMA enrichment of interactor (log2),[39],4.82
same,PRISMA enrichment of interactor (log2),[40],5.12
same,PRISMA enrichment of interactor (log2),[41],7.49
same,PRISMA enrichment of interactor (log2),[42],5.69
same,PRISMA enrichment of interactor (log2),[43],5.75
same,PRISMA enrichment of interactor (log2),[44],6.42
same,PRISMA enrichment of interactor (log2),[45],5.5
same,PRISMA enrichment of interactor (log2),[46],4.46
same,PRISMA enrichment of interactor (log2),[47],4.74
same,PRISMA enrichment of interactor (log2),[48],5.38
same,PRISMA enrichment of interactor (log2),[49],5.1
same,PRISMA enrichment of interactor (log2),[50],4.11
same,PRISMA enrichment of interactor (log2),[51],5.98
same,PRISMA enrichment of interactor (log2),[52],6.12
same,PRISMA enrichment of interactor (log2),[53],5.12
same,PRISMA enrichment of interactor (log2),[54],4.76
same,PRISMA enrichment of interactor (log2),[55],5.11
same,PRISMA enrichment of interactor (log2),[56],5.66
same,PRISMA enrichment of interactor (log2),[57],5.24
same,PRISMA enrichment of interactor (log2),[58],5.92
same,PRISMA enrichment of interactor (log2),[59],5.07
same,PRISMA enrichment of interactor (log2),[60],4.74
same,PRISMA enrichment of interactor (log2),[61],3.97
same,PRISMA enrichment of interactor (log2),[62],6.27

# Random excerpt: 3 entries already listed.
binder,measurement,setting,value
MLDLIRIYF [GATA4],PRISMA enrichment of interactor (log2),[38],7.17
same,PRISMA enrichment of interactor (log2),[43],5.75
MSSTSRDIPSQERSA [CDH11],PRISMA enrichment of interactor (log2),[18],4.97

# Reference: the supplement of paper PMC10032668
